Literature values as cited in US20260124181A1, “AGENT FOR REDUCING BLOOD MYOSTATIN LEVEL” (KOWA COMPANY, LTD., priority 2022, published 2026).
At least one structure is not confirmed: it was looked up by name or label, or the drawing left a doubt.

System: myostatin
Conditions: rodent animal model, Non Patent Document 1; cited from earlier work

CC(C)OC(=O)C(C)(C)Oc1ccc(C(=O)c2ccc(Cl)cc2)cc1 [fenofibrate]
expression of myostatin: suppresses the expression of myostatin
